The structures given here were assigned with low confidence; some may be wrong.
How the values were obtained:
IKKε = IKKε (Homo sapiens, UniProt Q14164); assay: IKKε kinase assay (384-well Flashplate); conditions: read-out: IKKε enzyme assay IC50; 10 μM ATP, 2 hours at 30° C.
[1] = biological target: TANK binding kinase (TBK1) (Homo sapiens, UniProt Q9UHD2); assay: TBK1 enzyme assay (384-well Flashplate kinase assay); type: biochemical; conditions: read-out: TBK1 enzyme assay IC50; 10 μM ATP, 120 Min at 30° C.
Description: The kinase assay is performed as 384-well Flashplate assay (for e.g. Topcount measurement.
0.6 nM TANK binding kinase (TBK1), 800 nM biotinylated MELK-derived peptide (Biotin-Ah-Ah-[…]) and 10 μM ATP (spiked with 0.25 μCi ^33P-ATP/well) are incubated in a total volume of 50 μl (10 mM MOPS, 10 mM Mg-acetat, 0.1 mM EGTA, 1 mM DTT, 0.02% Brij35, 0.1% BSA, pH 7.5) with or without test compound for 120 Min at 30° C. The reaction is stopped with 25 μl 200 mM EDTA. After 30 Min at room temperature the liquid is removed and each well washed thrice with 100 μl 0.9% sodium chloride solution. Nonspecific reaction is determined in presence of 100 nM Staurosporine. Radioactivity is measured in a Topcount (PerkinElmer). Results (e.g. IC50-values) are calculated with program tools provided by the IT-department (e.g. AssayExplorer, Symyx).

Sequences of proteins named here, by UniProt entry; tags and fusion partners are left off.
UniProt Q14164, whole entry: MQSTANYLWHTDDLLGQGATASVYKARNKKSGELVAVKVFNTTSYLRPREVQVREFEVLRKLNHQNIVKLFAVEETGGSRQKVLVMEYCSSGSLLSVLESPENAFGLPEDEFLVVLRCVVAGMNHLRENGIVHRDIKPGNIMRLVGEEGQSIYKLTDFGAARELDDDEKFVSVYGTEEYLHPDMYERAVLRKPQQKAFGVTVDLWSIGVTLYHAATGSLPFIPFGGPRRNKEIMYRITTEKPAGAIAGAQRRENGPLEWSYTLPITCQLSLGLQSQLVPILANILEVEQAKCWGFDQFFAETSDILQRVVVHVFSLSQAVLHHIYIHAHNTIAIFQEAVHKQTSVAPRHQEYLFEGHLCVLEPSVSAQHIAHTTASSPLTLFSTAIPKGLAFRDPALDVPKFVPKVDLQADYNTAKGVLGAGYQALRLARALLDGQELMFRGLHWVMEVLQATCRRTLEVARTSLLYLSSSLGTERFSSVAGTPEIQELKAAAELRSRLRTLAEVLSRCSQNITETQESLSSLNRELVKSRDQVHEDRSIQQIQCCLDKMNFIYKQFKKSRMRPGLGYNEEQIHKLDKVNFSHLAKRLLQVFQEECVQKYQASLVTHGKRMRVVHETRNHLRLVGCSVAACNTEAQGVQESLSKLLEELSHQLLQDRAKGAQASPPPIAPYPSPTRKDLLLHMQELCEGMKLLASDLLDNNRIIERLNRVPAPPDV
UniProt Q9UHD2, whole entry: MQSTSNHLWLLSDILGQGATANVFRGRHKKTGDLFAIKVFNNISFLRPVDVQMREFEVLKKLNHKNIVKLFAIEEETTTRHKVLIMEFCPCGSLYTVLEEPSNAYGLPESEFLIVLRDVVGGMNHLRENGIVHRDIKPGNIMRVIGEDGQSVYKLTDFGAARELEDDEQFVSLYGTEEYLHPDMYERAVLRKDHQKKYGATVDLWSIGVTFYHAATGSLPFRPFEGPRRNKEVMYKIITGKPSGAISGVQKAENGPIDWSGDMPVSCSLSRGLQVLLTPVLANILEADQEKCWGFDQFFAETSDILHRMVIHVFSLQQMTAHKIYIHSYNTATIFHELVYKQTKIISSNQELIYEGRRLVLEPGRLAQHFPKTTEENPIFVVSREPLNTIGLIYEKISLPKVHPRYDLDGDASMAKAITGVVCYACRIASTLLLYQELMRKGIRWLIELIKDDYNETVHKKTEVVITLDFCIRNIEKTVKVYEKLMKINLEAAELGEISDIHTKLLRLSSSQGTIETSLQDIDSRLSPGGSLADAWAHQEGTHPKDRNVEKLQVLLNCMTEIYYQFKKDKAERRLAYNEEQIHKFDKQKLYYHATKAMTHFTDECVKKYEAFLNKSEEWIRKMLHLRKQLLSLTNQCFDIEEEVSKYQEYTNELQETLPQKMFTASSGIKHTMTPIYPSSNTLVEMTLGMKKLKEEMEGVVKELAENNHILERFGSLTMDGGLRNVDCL

With `COc1cc(-c2cc3nccc(-c4ccc(OC5CCOCC5)c(C#N)c4)c3o2)ccc1C(=O)N1CCCNC(=O)C1` the IC50 (IKKε) was < 300 nM and the IC50 [1] was < 300 nM.

From patent publication US9045493B2, “Furo[3,2-b]- and thieno[3,2-b]pyridin derivatives” (Merck Patent GmbH, priority 2012, dated 2015)
